Test results taken from publication PMC11186355.
Results are given in words; binding and its absence hold for the method and conditions named. Binding seen in cells or lysates may run through a third protein. Here binding means that the protein was enriched with, or labelled near, the bait; the list need not be complete. Where a sequence is shown, tags or fusion partners need not be part of it.

Target: T1, SEC31A-TurboID-V5 (UniProt O94979)
T1 sequence: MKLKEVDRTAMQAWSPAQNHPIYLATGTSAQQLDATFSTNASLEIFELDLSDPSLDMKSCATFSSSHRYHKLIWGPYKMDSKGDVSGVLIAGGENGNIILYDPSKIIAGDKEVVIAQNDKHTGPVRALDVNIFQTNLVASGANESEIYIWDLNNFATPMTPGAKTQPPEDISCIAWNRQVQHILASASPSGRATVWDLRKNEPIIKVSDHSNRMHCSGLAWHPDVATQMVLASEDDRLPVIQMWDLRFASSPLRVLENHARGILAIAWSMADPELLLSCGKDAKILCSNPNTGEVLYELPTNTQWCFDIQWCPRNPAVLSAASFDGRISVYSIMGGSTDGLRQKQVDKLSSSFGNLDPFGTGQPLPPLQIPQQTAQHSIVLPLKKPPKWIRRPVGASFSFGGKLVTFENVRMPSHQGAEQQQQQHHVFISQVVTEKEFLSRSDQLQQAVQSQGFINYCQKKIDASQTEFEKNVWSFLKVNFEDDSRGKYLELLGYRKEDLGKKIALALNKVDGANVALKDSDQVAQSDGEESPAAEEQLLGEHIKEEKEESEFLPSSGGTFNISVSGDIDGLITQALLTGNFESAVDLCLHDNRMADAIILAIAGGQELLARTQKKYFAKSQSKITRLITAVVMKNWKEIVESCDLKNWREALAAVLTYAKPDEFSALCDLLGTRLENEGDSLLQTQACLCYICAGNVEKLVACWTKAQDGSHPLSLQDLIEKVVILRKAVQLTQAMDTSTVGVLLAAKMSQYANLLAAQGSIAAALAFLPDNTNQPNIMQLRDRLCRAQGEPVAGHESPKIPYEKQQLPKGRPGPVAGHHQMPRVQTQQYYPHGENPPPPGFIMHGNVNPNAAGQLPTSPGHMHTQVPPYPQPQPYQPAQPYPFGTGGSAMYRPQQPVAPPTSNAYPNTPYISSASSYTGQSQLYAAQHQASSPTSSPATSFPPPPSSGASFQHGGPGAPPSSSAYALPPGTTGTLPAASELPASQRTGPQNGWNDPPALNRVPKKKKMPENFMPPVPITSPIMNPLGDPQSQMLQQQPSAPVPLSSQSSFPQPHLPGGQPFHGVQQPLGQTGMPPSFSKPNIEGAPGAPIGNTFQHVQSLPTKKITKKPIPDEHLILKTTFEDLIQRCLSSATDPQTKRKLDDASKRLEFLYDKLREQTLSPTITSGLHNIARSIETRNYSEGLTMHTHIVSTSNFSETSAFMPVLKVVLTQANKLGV
Test: proximity labelling; SEC31A-TurboID-V5 in HeLa cells, 50 μM biotin for 10 min against no biotin; streptavidin magnetic beads, label-free LC-MS/MS; FC≥4 and p<0.05, n=3

binding: binds
B1: Syntaxin 5 (STX5) (protein, UniProt Q13190 1-355)
chain: MIPRKRYGSKNTDQGVYLGLSKTQVLSPATAGSSSSDIAPLPPPVTLVPPPPDTMSCRDRTQEFLSACKSLQTRQNGIQTNKPALRAVRQRSEFTLMAKRIGKDLSNTFAKLEKLTILAKRKSLFDDKAVEIEELTYIIKQDINSLNKQIAQLQDFVRAKGSQSGRHLQTHSNTIVVSLQSKLASMSNDFKSVLEVRTENLKQQRSRREQFSRAPVSALPLAPNHLGGGAVVLGAESHASKDVAIDMMDSRTSQQLQLIDEQDSYIQSRADTMQNIESTIVELGSIFQQLAHMVKEQEETIQRIDENVLGAQLDVEAAHSEILKYFQSVTSNRWLMVKIFLILIVFFIIFVVFLA
